Chains of the proteins cited; added tags and fusions are not shown. Residues count along the entry.
UniProt A0A3Q0KMM5, 27-661 limits assumed: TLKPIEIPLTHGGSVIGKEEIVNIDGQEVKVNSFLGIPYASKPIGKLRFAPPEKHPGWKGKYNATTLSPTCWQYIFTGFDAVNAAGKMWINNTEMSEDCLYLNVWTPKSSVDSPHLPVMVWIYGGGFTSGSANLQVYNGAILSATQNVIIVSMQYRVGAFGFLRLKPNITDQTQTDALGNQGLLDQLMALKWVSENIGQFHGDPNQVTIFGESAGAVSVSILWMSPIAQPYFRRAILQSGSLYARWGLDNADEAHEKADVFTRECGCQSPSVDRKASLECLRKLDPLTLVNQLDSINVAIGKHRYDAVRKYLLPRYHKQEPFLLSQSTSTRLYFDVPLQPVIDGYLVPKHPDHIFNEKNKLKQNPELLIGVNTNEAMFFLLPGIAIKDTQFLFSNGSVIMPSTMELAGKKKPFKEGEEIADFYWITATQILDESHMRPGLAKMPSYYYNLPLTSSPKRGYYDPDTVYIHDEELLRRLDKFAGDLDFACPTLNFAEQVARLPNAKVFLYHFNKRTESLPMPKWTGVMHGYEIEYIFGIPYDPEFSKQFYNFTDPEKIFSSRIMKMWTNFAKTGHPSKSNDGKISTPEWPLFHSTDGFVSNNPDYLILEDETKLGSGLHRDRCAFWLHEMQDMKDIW
UniProt P22303, 32-614: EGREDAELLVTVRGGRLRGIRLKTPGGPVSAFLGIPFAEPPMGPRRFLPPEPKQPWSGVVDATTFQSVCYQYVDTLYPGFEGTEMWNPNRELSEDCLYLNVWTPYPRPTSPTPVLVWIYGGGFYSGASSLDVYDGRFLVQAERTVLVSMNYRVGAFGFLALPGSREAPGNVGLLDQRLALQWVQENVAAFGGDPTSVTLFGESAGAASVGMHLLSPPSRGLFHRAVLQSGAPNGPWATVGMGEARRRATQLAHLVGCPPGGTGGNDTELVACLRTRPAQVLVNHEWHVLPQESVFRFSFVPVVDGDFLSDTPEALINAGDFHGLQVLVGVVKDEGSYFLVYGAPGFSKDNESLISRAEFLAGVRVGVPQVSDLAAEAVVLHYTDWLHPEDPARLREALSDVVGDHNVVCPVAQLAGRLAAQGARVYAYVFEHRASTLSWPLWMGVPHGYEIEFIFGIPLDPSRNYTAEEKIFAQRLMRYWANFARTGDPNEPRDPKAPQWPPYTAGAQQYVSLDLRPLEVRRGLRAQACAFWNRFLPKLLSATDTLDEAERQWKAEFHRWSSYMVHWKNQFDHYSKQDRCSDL

According to paper PMC12154458, “High-Throughput Screens of Repurposing Hub and DOS Chemical Libraries Reveal Compounds with Novel and Potent Inhibitory Activity Against the Essential Non-Neuronal Acetylcholinesterase of Schistosoma mansoni (SmTAChE)” (International Journal of Molecular Sciences, 2025):

What was measured:
rSmTAChE [1] = target: T1, rSmTAChE (Schistosoma mansoni, UniProt A0A3Q0KMM5); type: biochemical
[2] = target: recombinant human acetylcholinesterase, rHsAChE (Homo sapiens, UniProt P22303); assay: biochemical
rSmTAChE [3] = target: T1, rSmTAChE; assay: biochemical; conditions: read-out: rSmTAChE HTS Inhibition (Ave, %)

`CCCCCCCCCCCCCCCC[n+]1ccccc1` [Cetylpyridinium chloride, reference compound] was tested. Which “Data Mode (curve class), rSmTAChE” value (rSmTAChE [1]) did it give?
Its value is “decreasing”.

What about the “Data Mode (curve class), rHsAChE” value [2] of the same compound?
Its value is “decreasing”.

And the “SI (Sm/Hs)” value [2]?
Its value is 5.01.

What about the IC50 ([2]; IC50 (µM) rHsAChE) of the same compound?
Its IC50 is 1.47 µM.

And the inhibition at 20 µM (rSmTAChE [3])?
Its inhibition at 20 µM is 71%.
